Here are results for two molecules from article PMC7982829.

Experiment [1] addresses T1, CCT8 (T-complex protein 1 subunit theta), endogenous in mouse testis (mouse (endogenous in testis)) (UniProt P42932).
T1 sequence: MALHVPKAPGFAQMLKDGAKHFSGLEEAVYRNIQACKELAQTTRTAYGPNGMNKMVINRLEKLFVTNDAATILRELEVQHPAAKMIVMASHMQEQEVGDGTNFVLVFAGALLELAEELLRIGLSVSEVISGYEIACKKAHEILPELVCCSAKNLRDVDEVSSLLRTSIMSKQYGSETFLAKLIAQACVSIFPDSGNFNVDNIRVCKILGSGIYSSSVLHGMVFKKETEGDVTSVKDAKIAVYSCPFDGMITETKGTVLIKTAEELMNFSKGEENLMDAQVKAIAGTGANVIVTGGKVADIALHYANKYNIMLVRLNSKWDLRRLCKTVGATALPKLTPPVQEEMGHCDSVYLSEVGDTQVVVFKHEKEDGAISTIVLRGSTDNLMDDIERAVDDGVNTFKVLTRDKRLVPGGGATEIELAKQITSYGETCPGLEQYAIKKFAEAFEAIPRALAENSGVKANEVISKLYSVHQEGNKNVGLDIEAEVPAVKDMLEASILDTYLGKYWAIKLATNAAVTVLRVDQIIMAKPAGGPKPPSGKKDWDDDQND
Description: co-IP; testes of WT mice lysed in RIPA buffer; pre-cleared with Protein A/G magnetic beads, incubated with anti-TULP2 or anti-CCT8 antibody at 4°C overnight; normal IgG as control; western blotting. A general note: Immunoblotting shows a protein as a band on a membrane.

Experiment [2] concerns the target T2, TULP2 (tubby-like protein 2), endogenous in mouse testis (mouse (endogenous in testis)) (UniProt P46686).
T2 sequence: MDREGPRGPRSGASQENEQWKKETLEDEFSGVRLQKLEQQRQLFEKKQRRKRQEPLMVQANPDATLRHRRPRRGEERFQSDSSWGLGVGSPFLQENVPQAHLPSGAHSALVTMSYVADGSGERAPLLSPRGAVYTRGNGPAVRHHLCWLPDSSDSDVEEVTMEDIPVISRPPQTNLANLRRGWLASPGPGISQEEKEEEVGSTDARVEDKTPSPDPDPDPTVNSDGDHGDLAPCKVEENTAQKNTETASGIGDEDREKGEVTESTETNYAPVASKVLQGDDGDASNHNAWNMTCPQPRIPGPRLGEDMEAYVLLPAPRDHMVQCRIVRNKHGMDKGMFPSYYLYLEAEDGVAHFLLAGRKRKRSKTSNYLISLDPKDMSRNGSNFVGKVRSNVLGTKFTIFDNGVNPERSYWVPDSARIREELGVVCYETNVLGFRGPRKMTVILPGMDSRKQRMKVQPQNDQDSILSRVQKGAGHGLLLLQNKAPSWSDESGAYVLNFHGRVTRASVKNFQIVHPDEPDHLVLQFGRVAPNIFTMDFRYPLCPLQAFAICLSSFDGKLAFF
The description is as above.

Results are given in words; binding and its absence hold for the method and conditions named. In cells and extracts the contact can be indirect. Some results given as binding are weak or reduced against the parent protein; the word gives no strength.

B1: TULP2 (tubby-like protein 2), endogenous in mouse testis (protein, UniProt P46686 1-562)
chain: MDREGPRGPRSGASQENEQWKKETLEDEFSGVRLQKLEQQRQLFEKKQRRKRQEPLMVQANPDATLRHRRPRRGEERFQSDSSWGLGVGSPFLQENVPQAHLPSGAHSALVTMSYVADGSGERAPLLSPRGAVYTRGNGPAVRHHLCWLPDSSDSDVEEVTMEDIPVISRPPQTNLANLRRGWLASPGPGISQEEKEEEVGSTDARVEDKTPSPDPDPDPTVNSDGDHGDLAPCKVEENTAQKNTETASGIGDEDREKGEVTESTETNYAPVASKVLQGDDGDASNHNAWNMTCPQPRIPGPRLGEDMEAYVLLPAPRDHMVQCRIVRNKHGMDKGMFPSYYLYLEAEDGVAHFLLAGRKRKRSKTSNYLISLDPKDMSRNGSNFVGKVRSNVLGTKFTIFDNGVNPERSYWVPDSARIREELGVVCYETNVLGFRGPRKMTVILPGMDSRKQRMKVQPQNDQDSILSRVQKGAGHGLLLLQNKAPSWSDESGAYVLNFHGRVTRASVKNFQIVHPDEPDHLVLQFGRVAPNIFTMDFRYPLCPLQAFAICLSSFDGKLAFF
For the molecule B1, the binding result in experiment [1] is recorded as “binds”.

B2: CCT8 (T-complex protein 1 subunit theta), endogenous in mouse testis (protein, UniProt P42932 1-548)
chain: MALHVPKAPGFAQMLKDGAKHFSGLEEAVYRNIQACKELAQTTRTAYGPNGMNKMVINRLEKLFVTNDAATILRELEVQHPAAKMIVMASHMQEQEVGDGTNFVLVFAGALLELAEELLRIGLSVSEVISGYEIACKKAHEILPELVCCSAKNLRDVDEVSSLLRTSIMSKQYGSETFLAKLIAQACVSIFPDSGNFNVDNIRVCKILGSGIYSSSVLHGMVFKKETEGDVTSVKDAKIAVYSCPFDGMITETKGTVLIKTAEELMNFSKGEENLMDAQVKAIAGTGANVIVTGGKVADIALHYANKYNIMLVRLNSKWDLRRLCKTVGATALPKLTPPVQEEMGHCDSVYLSEVGDTQVVVFKHEKEDGAISTIVLRGSTDNLMDDIERAVDDGVNTFKVLTRDKRLVPGGGATEIELAKQITSYGETCPGLEQYAIKKFAEAFEAIPRALAENSGVKANEVISKLYSVHQEGNKNVGLDIEAEVPAVKDMLEASILDTYLGKYWAIKLATNAAVTVLRVDQIIMAKPAGGPKPPSGKKDWDDDQND
In the case of B2, the binding entry in experiment [2] is “binds”.
